Assay results: the supplement of paper PMC10338343
± gives the standard deviation. The entries are a selection whose mix differs from that of the whole data set. The uncertainty is large for many entries.

What follows are sequences tested on MIWI (PIWIL1) piRISC loaded with piRNA #1 (30 nt) (assay: pre-steady-state target cleavage rate (min^-1); MIWI and MILI are mouse PIWI proteins and EfPiwi is from a freshwater sponge; tags in brackets are library labels; higher = faster piRNA-guided slicing of the target). Details: guide: piRNA #1 5'p-UGAGGUAGUAGGUUGUAUAGUAUCCAGAGG; auxiliary factor: 500 nM mouse GTSF1.
Summary of the method: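 For Cleave-'n-Seq, a transcribed, DNA-blocked target RNA library […] met 1 nM active affinity-purified piRISC with one synthetic guide at 33 °C for 0–8 or 0–960 min in HEPES–potassium acetate buffer, with or without 500 nM GTSF1 partner protein. Uncleaved targets were sequenced and normalised to depth and weakly complementary targets, with three trials pooled and k3 capped at 0.0001 min^-1. A burst-and-steady-state fit supplied the pre-steady-state cleavage rate.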
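Further: 1 nM active piRISC with 0.1 nM target library at 33 °C single turnover.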

Sequence	pre-steady-state target cleavage rate
GGAGACCUAUGAUUACAACCUACUACCACA	0.000339 ± 0.0063
GGAGACCUAACUUAACAACCUACUACCUCA	0.00423 ± 0.0053
GGAGACCUAUGUUUACAACCUACUACCACA	0.00169 ± 0.0045
GCUCUGGAUACUAUACCAACCUACUACCUCA	0.392 ± 0.075
GCUCUCGAUACUAUACAACCUACUACGUCA	1.24 ± 0.079
GGAGACCUAUGAAUACAACCUACUACUUCA	0.00295 ± 0.003
GGAGACCUAUGAAUACAACCUGCUACCUCA	0.00136 ± 0.0032
GGACUGGAUACUAUACAACCUACUUCCUGA	0.000265 ± 0.014
CCUCUGGAUACUAUACAACCUACUAUCUCA	1.09 ± 0.076
CCUGUGGUUACUAUACAACCUACUACCUCA	1.17 ± 0.058
GCUCUGGAUACUAUACAACCUACUACCUCG [g2:g29:cont:t1G]	1.29 ± 0.098
GCUCUGGAUACUAUACAACCUACUACCUCA [g2:g29:cont:t1A]	1.89 ± 0.1
GGAGUGGUUACUAUACAACGUACUACCUCA	0.386 ± 0.027
GGUCUGGAUACUAUAGAACCUACUUCCUCA	0.000427 ± 0.0092
GGAGACCUAUGAUAUCAACCUACUUACCUCA	0.000291 ± 0.0077
GCUCUGGAUACUAUCACAACCUACUACCUCA	1.62 ± 0.12
GGACUGGAUACUAUACAACCUACGUACCUCA	0.656 ± 0.089
GGAGACCUAUGAAUACAACCUACUUACCUCA	0.00206 ± 0.0032
GGAGACCUAUGUAUACAAUCUACUACCUCA	0.0144 ± 0.0036
GGACUGGAUACUAUACAACCUACUAGGAGA [g6:g27:cont:t1A]	0.000121 ± 0.026

Another view of part of the listing above:
CCUCUGGAUACUAUACAACCUACUAUCUCA
  pre-steady-state target cleavage rate: 1.09 ± 0.076
GCUCUGGAUACUAUACAACCUACUACCUCA [g2:g29:cont:t1A]
  pre-steady-state target cleavage rate: 1.89 ± 0.1
GGAGACCUAUGAAUACAACCUACUUACCUCA
  pre-steady-state target cleavage rate: 0.00206 ± 0.0032

More results follow:

Sequence	pre-steady-state target cleavage rate
GGAGACCUAUGAUUACUACCUACUUCCUCA	0.000205 ± 0.012
GGUCUGGAAACUAUACAACCUACUACCACA	0.461 ± 0.05
GCUCUGGAUACUAUACAACCUAGAUGGAGA [g9:g29:cont:t1A]	0.00269 ± 0.003
GGAGACCUAUGAAUACAACCUACUACUCUCA	0.00203 ± 0.0027
CCUCUGGUUUCUAUACAACCUACUACCUCA	2.25 ± 0.15
GGAGACCUAUGAUAACAACCUACUACCGCA	0.00137 ± 0.0048
GCUCUGCAUACUAUACAACCUACUACCACA	1.98 ± 0.18
GCUCUGGAUACUAUACUACCUACAACCUCA	0.938 ± 0.086
GGAGACCUUACUAUACACACCUACUACCUCA	0.000545 ± 0.012
CCUCUGGAUACUAUUCAACCUAGUACCUCA	0.085 ± 0.021
CCUCUGGAUACUAUUACAACCUACUACCUCA	1.82 ± 0.12
GGAGACCUAUCUAUACAACCGUACUACCUCA	0.00156 ± 0.0047
GGUCUGGAUACUAUAGAACCUACUAGCUCA	0.00019 ± 0.02
GGAGACCUAUCUAUACAACCUUACUACCUCA	0.000716 ± 0.0067
GGAGACCUAUGAAUACAACCUACUACCUA	0.00141 ± 0.0049
CCUCUGGAUACUAUUCAACCUACAACCUCA	1.62 ± 0.13
GGAGACCUAUGAUAACAACCUACUAUCCUCA	0.00205 ± 0.0046
GCUCAGCAUACUAUACAACCUACUACCUCA	1.83 ± 0.11
GGAGUCGGAUACUAUACAACCUACUACCUCA	1.45 ± 0.091
GGAGACCUAUGAUUACAAGCUACUUCCUCA	0.000856 ± 0.0077
